Laboratory results as given in PMC6823300, “The molecular basis of monopolin recruitment to the kinetochore” (Chromosoma, 2019).
Results are given in words; binding and its absence hold for the method and conditions named. Binding calls can cover weak binding; strength is not graded here. Tags and fused reporters may be left off the sequences shown.

Biological target: Cg His6-Csm1^69–181 (Candida glabrata)
Experiment: crystal structure; Cg His6-Csm1 69–181:ScDsn1 71–110; 0.2 M MgCl2, 0.1 M Tris-HCl pH 8.5, 25% PEG 3350; 2.5 Å; both purified

B1: His6-MBP-fused S. cerevisiae Dsn1 Box 1-2-3 region (residues 71–110 of 576) (domain or fragment, UniProt P40568 71-110, looked up)
chain: DLKFKRHKNKHIQGFPTLGERLDNLQDIKKAKRVENFNSS
notes: S. cerevisiae Dsn1, Box 1-2-3 region, residues 71-110 of 576; also called Sc Dsn1^71–110; His6-MBP-fused Dsn1 fragment; source: E. coli Rosetta2 (DE3) pLysS, purified
  binding: binds
